No constants are given. Whether binding was seen depends on the method and setting. Some results given as binding are weak or reduced against the parent protein; the word gives no strength.
B1: anti-FGFR4 antibody 64-12 (antibody, mouse IgG1, V domains shown)
VH: DVQLVESGGGLVQPGGSRKLSCAASGFTFSNFGMHWVRQAPEKGLEWVAYISSGSSTIYYADTVKGRFTISRDNPKNTLFLQMTSLRSEDTAMYYCARYDYDDDYYAMEYWGQGTSVTVSS
VL: QAVVTQESALTTSPGETVTLTCRSSTGAVTTSNYANWVQEKPDHLFTGLIGGTNNRAPGVPARFSGSLIGDKAALTITGAQTEDEAIYFCALWYSNHWVFGGGTKLTVLG
B2: anti-FGFR4 antibody clone 36 (human IgG1 format) (antibody, V domains shown)
VH: EVQLLESGGGLVQPGGSLRLSCAASGFTFSHYWMGWVRQAPGKGLEWVSVISPSGGLTIYADSVKGRFTISRDNSKNTLYLQMNSLRAEDTAVYYCARSSGWALDAFDIWGQGTMVTVSS
VL: QYELTQPPSASGTPGQRVTISCSGSSSNIGSNIVHWYQQLPGTAPKLLIYGNNQRPSGVPDRFSVSKSGSSASLAISGLQSEDEADYYCASWDDSLKAFYVFGTGTKVTVLG
B3: anti-FGFR4 antibody clone 8 (human IgG1 format) (antibody, V domains shown)
VH: EVQLLESGGGLVQPGGSLRLSCAASGFTFSPYWMGWVRQAPGKGLEWVSVIWPSGGTTDYADSVKGRFTISRDNSKNTLYLQMNSLRAEDTAVYYCARVHPAGHNDHWGQGTLVTVSS
VL: QSELTQPPSASGTPGQRVTISCSGGYSNMGSNYAHWYQQLPGTAPKLLIYNNNQRPSGVPDRFSGSKSGTSASLAISGLRSEDEADYYCAAWDDSLSGPVFGGGTKLTVLG
B4: anti-FGFR4 antibody clone 31 (human IgG1 format) (antibody, V domains shown)
VH: EVQLLESGGGLVQPGGSLRLSCAASGFTFSRYFMKWVRQAPGKGLEWVSWISPSGGLTEYADSVKGRFTISRDNSKNTLYLQMNSLRAEDTAVYYCARASYGAWLDYWGQGTLVTVSS
VL: DIQMTQSPSSLSLSPGERATLSCRASQSINRNLGWYQQKPGQAPRLLIYGASTRATGIPARFTGSGSGTEFSLTISSLQSEDYAIYYCQQYDNWPIIFGQGTRLEIKG
B5: anti-FGFR4 antibody clone 33 (human IgG1 format) (antibody, V domains shown)
VH: EVQLLESGGGLVQPGGSLRLSCAASGFTFSTYWMAWVRQAPGKGLEWVSVIGPSGGMTVYADSVKGRFTISRDNSKNTLYLQMNSLRAEDTAVYYCARINSGSSHFDYWGQGTLVTVSS
VL: QSVLTQPPSASGTPGQGVTISCSGSSSNIGSNSVNWYQQLPGAAPKLLIYSNNLRPSGVPARFSGSKSGTSASLAISGLRSEDEADYYCAAWDDGLDAYVVFGGGTKLTVLG

Protein sequences, listed by entry. Tags and fused reporters are not part of them. Residues count along the entry.
UniProt P22455, residues 22-369: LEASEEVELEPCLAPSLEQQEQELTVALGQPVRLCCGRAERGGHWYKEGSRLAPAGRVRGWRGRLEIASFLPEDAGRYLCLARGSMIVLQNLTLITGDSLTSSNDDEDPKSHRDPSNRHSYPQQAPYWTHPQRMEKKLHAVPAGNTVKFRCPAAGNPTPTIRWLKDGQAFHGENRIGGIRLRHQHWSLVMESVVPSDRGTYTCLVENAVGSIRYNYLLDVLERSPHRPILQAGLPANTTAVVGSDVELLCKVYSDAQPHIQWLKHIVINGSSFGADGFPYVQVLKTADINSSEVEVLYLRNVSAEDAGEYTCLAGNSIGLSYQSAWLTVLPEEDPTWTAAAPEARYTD

Experiments:
[1] = target: human FGF-R4 recombinant extracellular domain protein, construct not named (human) (UniProt P22455); assay: ELISA on coated FGF-R4 constructs, single condition, antibody concentration not given
[2] = target: human FGF-R4 recombinant extracellular domain protein, construct not named (human) (UniProt P22455); assay: ELISA on coated FGF receptors
[3] = target: human FGF-R4 recombinant extracellular domain protein, construct not named (human) (UniProt P22455); assay: ELISA on plates coated with the 4 human FGF receptors, single condition, antibody concentration not given
[4] = target: human FGF-R4 recombinant extracellular domain protein, construct not named (human) (UniProt P22455); assay: ELISA on plates coated with the 4 human FGF receptors
[5] = target: hFGFR4-Histag (human) (UniProt P22455); assay: SPR (BIAcore 3000)
[6] = target: hFGFR4-Histag (human) (UniProt P22455); assay: SPR (BIAcore 3000), see Table 4

Binder	binding [1]	binding [2]	binding [3]	binding [4]	binding [5]	binding [6]
B1	binds	binds	binds	binds	–	–
B2	–	–	–	–	binds	binds
B3	–	–	–	–	binds	binds
B4	–	–	–	–	binds	binds
B5	–	–	–	–	binds	binds
